This is one part of the list.
compound: C1=CC2=C(C=CC(=C2)/C=C\3/C(=O)NC(=NCC4=CC=CS4)S3)N=C1; assay: log2 fold change, soluble protein after heating vs DMSO (PISA); higher = thermal stabilisation; K562 lysate, 10 uM; active = over 0.2 and 3.5 SD of the protein, either way, in both replicates (recomputed)
Summary of the method: (§1)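 To prepare the extract, K562 pellets were dounce-homogenised in PBS pH 7.4 with 1 mM MgCl2, giving crude material at 1 mg/mL protein. This was treated with 10 μM compound for 30 min, then heated in aliquots for 3 min over 48°C-58°C before pooling and addition of NP-40 to 0.5% at 4°C. Centrifugation at 21,000xg for 90 min left soluble protein in the supernatant, which TMTpro 16plex LC-MS/MS quantified with equalised channel sums. Results are log-two fold changes in thermal stability compared with solvent controls, from duplicates.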

The chains behind the UniProt entries cited, without tags or fusion partners. Where a name states a change or a piece, a line headed by the entry shows the natural chain unless it says otherwise.
UniProt Q9BWG4: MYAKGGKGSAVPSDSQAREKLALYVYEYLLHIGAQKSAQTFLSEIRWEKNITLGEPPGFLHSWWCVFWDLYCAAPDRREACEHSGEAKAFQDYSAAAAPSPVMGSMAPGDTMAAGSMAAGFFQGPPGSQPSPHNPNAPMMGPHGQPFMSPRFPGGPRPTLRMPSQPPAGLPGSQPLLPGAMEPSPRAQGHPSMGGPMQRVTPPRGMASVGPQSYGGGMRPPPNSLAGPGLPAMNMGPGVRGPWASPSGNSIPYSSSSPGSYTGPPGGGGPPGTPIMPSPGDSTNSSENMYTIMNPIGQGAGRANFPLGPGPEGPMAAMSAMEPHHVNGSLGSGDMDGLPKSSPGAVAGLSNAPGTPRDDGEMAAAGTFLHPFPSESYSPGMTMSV
UniProt Q658P3: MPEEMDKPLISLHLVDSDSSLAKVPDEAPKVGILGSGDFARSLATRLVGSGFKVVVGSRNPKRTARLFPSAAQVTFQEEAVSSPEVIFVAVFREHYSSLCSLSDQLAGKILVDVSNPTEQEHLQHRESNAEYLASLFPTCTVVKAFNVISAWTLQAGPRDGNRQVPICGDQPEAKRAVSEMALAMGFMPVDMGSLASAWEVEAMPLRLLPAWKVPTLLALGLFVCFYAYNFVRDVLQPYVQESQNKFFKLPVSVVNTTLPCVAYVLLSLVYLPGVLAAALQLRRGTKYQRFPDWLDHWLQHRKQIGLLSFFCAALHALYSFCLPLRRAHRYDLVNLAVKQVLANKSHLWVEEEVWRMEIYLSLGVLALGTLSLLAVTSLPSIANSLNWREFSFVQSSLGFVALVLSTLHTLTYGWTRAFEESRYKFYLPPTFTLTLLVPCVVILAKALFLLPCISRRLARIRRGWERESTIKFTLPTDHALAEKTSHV
UniProt Q9H040: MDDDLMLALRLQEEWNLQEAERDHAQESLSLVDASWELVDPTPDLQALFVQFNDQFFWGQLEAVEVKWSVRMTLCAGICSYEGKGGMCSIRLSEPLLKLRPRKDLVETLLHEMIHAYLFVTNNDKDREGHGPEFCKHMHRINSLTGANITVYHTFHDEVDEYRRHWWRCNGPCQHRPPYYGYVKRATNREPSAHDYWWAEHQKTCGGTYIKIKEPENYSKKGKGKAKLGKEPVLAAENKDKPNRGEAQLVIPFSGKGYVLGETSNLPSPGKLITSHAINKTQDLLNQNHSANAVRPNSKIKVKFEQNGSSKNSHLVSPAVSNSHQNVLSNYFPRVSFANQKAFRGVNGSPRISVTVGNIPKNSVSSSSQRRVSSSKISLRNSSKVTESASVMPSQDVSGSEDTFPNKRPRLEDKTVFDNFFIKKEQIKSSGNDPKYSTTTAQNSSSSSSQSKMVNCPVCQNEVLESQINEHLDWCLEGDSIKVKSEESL
UniProt Q9Y2D8: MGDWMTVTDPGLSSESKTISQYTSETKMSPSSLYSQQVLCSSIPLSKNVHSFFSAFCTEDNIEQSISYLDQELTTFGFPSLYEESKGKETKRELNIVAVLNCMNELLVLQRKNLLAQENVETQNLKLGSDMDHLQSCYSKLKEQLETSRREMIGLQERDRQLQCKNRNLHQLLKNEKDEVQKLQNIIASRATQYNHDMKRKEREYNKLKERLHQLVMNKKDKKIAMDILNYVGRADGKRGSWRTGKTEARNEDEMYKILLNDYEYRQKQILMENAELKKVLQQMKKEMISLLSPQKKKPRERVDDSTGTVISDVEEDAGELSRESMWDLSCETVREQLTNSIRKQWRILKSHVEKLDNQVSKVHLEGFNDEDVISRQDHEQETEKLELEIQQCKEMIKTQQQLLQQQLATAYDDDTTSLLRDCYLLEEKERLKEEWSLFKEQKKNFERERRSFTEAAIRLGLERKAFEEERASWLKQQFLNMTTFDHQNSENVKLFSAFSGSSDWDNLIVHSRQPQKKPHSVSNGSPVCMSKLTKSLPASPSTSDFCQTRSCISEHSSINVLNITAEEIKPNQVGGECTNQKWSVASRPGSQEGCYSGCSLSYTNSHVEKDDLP
UniProt Q92502: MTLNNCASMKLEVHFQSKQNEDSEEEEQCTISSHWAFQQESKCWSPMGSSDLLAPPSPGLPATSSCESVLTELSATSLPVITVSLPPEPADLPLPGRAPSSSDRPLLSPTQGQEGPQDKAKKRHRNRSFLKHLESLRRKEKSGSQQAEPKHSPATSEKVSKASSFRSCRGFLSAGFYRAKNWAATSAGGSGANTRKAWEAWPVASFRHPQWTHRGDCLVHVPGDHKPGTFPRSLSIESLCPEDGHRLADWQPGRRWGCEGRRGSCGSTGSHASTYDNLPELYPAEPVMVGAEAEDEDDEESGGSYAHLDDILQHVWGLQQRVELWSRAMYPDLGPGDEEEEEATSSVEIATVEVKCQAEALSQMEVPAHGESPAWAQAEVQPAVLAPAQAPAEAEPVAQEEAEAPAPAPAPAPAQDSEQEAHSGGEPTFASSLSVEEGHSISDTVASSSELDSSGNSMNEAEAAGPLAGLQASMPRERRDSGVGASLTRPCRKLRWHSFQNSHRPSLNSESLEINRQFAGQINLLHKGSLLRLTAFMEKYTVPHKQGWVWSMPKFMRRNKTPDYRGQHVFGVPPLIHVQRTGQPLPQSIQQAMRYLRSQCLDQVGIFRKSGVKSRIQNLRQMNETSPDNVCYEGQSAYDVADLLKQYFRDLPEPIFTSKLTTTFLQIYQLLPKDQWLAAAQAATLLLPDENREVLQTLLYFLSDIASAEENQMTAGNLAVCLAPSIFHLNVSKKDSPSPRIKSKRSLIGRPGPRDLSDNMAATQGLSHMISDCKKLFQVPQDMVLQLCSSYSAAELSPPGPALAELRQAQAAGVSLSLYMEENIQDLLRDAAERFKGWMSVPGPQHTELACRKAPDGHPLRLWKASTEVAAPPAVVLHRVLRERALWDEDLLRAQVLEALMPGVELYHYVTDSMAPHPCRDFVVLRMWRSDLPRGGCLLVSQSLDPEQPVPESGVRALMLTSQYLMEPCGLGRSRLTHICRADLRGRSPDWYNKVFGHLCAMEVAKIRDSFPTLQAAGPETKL
UniProt Q7Z699: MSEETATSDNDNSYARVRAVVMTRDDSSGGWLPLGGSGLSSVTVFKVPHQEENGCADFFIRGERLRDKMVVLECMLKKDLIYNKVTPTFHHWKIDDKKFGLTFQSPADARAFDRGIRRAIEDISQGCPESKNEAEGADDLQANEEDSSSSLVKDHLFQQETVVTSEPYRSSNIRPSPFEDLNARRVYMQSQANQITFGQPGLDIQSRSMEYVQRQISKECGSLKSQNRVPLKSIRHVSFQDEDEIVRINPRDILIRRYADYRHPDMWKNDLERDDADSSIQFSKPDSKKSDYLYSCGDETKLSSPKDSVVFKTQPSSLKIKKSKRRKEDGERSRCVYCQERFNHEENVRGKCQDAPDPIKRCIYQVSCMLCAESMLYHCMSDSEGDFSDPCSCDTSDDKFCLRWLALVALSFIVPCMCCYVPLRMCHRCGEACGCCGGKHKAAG
UniProt P35325: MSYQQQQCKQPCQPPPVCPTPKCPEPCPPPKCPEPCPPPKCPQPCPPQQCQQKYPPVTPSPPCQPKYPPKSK
UniProt Q8NCJ5: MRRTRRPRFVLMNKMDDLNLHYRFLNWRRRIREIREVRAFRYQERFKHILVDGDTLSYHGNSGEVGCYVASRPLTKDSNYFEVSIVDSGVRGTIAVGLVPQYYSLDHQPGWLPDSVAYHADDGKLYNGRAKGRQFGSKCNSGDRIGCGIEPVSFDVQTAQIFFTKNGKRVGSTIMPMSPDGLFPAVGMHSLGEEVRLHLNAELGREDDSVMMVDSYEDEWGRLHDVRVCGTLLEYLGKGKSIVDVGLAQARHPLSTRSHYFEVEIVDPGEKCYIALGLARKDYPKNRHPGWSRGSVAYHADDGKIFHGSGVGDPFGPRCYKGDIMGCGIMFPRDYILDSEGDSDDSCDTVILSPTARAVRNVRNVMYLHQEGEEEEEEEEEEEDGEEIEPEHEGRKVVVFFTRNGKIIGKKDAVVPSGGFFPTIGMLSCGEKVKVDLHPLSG
UniProt Q8WVM7: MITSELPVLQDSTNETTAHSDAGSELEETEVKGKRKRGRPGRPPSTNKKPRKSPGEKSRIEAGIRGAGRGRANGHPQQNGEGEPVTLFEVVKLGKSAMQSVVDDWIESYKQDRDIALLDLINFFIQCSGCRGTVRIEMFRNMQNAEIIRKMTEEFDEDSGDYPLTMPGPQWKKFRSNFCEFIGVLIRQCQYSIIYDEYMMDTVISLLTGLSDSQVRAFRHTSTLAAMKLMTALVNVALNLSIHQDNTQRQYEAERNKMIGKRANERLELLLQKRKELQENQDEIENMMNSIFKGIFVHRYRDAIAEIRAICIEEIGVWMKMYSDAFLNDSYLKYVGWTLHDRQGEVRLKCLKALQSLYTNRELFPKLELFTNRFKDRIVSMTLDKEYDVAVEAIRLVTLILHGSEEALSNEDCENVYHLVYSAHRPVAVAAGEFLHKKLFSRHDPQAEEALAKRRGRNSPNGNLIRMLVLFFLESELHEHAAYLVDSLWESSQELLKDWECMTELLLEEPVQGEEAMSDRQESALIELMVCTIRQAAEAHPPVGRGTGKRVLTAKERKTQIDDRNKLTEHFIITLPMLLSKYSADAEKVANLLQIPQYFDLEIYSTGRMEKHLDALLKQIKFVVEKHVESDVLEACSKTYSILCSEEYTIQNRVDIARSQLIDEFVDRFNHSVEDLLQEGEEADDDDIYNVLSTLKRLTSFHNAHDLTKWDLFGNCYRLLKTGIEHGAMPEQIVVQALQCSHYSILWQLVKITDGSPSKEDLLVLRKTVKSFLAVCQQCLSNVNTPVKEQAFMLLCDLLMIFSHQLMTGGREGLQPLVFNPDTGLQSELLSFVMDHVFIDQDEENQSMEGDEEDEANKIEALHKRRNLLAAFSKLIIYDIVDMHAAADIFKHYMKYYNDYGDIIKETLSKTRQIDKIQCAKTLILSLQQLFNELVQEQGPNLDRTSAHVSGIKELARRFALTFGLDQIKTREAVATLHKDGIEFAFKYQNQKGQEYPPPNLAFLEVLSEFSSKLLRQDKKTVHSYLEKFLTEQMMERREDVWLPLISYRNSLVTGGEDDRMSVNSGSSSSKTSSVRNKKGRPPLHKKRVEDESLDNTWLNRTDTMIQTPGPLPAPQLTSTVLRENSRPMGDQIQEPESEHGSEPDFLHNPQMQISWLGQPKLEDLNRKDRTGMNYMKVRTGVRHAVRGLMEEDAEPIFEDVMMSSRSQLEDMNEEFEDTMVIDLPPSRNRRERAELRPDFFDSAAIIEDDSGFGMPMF
UniProt O75177, whole entry, looked up: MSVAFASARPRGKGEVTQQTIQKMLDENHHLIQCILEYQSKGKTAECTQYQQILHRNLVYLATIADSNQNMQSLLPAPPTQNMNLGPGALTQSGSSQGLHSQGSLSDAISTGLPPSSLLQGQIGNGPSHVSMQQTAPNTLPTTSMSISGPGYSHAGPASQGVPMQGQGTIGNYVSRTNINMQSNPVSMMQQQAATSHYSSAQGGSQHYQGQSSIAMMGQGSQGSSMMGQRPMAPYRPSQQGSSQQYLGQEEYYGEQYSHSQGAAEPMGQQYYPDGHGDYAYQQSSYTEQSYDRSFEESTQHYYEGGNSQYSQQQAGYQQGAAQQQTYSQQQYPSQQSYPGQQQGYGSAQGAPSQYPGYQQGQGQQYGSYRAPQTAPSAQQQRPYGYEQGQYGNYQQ
UniProt Q9Y6N5: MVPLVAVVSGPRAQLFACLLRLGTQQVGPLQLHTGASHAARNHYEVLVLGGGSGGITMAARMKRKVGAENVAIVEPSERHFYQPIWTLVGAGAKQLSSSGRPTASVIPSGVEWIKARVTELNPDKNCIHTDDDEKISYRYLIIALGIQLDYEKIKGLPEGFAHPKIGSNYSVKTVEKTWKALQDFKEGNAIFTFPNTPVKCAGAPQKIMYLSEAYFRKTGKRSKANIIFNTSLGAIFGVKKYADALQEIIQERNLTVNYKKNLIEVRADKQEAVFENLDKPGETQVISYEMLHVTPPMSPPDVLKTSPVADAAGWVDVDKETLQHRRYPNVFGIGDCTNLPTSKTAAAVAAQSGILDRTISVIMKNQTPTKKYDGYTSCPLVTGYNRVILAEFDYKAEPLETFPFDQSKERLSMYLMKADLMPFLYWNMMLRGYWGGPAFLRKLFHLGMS
UniProt P43308: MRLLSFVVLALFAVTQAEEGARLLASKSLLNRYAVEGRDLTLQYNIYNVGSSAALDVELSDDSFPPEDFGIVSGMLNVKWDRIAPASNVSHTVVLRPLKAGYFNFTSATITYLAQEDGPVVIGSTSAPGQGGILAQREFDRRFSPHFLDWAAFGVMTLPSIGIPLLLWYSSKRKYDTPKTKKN
UniProt Q96DR4, whole entry, looked up: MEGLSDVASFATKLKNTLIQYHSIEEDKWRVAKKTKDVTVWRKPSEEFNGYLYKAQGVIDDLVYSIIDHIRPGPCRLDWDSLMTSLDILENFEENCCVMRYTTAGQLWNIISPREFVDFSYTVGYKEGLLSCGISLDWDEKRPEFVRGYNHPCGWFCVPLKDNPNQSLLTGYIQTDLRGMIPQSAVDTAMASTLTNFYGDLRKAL

log2 fold change, inactive:
SSBP4 (UniProt Q9BWG4) 0.032, SSBP4 (UniProt U3KPY3) 0.143, STEAP3 isoform 2 (UniProt Q658P3) 0.049, SPIN4 (UniProt Q56A73) -0.201, SPTAN1 isoform 3 (UniProt Q13813) 0.107, SPRTN (UniProt Q9H040) -0.199, SPATA33 isoform 2 (UniProt Q96N06) 0.031, SSX2IP (UniProt Q9Y2D8) -0.035

compound: C1=CC2=NC=CN=C2C=C1/C=C/3\C(=O)NC(=O)S3; assay: as above
Summary of the method: as §1

log2 fold change, inactive:
STARD8 isoform 2 (UniProt Q92502) -0.189, SSBP4 (UniProt Q9BWG4) 0.047, SSBP4 (UniProt U3KPY3) 0.181, STEAP3 isoform 2 (UniProt Q658P3) -0.098, SPINT1 (UniProt O43278) 0.061, SRP14 (UniProt H0YLW0) -0.002, SPP2 (UniProt Q13103) -0.068, SPRED1 (UniProt Q7Z699) -0.043, SPTAN1 isoform 3 (UniProt Q13813) -0.11, STAU1 isoform 3 (UniProt O95793) -0.103, SPRR2B (UniProt P35325) -0.004, SPTY2D1 (UniProt Q68D10) 0.192, SRC isoform 2 (UniProt P12931) 0.102, SPRED2 (UniProt Q7Z698) -0.062, SPATA33 isoform 2 (UniProt Q96N06) -0.183, SPRYD3 (UniProt Q8NCJ5) -0.109, STAG1 (UniProt Q8WVM7) -0.071, SS18L1 (UniProt O75177) -0.171

compound: C1=CC=C(C=C1)C2=NC(=C(N2)C3=CC=NC=C3)C4=CC(=C(C=C4)Cl)O; assay: as above
Summary of the method: as §1

log2 fold change, inactive:
STARD8 isoform 2 (UniProt Q92502) -0.014, STEAP3 isoform 2 (UniProt Q658P3) 0.048, SRP14 (UniProt H0YLW0) 0.12, SPRED1 (UniProt Q7Z699) -0.014, SREBF1 isoform 4 (UniProt P36956) -0.059, SQOR (UniProt Q9Y6N5) -0.036, STAB1 (UniProt Q9NY15) 0.037, SPRR2B (UniProt P35325) 0.022, SPTY2D1 (UniProt Q68D10) -0.096, SREK1IP1 (UniProt Q8N9Q2) 0.014, SRC isoform 2 (UniProt P12931) -0.063, SPRTN (UniProt Q9H040) -0.085, SPTBN1 isoform 3 (UniProt Q01082) -0.037, STAG2 (UniProt Q8N3U4) 0.09, SPATA33 isoform 2 (UniProt Q96N06) -0.058, SSR2 (UniProt P43308) 0.06, SPRYD3 (UniProt Q8NCJ5) -0.043, STAG1 (UniProt Q8WVM7) -0.01, SRCIN1 (UniProt Q9C0H9) 0.002, SS18L1 (UniProt O75177) 0.015, SRRD (UniProt Q9UH36) 0.275, SSX2IP (UniProt Q9Y2D8) -0.109

compound: C1=CC=C2C(=C1)C3=NNC4=CC=CC(=C43)C2=O; assay: as above
Summary of the method: as §1

log2 fold change, inactive:
SSBP4 (UniProt Q9BWG4) -0.176, SSBP4 (UniProt U3KPY3) -0.01, STEAP3 isoform 2 (UniProt Q658P3) -0.051, SPIN4 (UniProt Q56A73) -0.05, SPTAN1 isoform 3 (UniProt Q13813) 0.037, SPRTN (UniProt Q9H040) -0.117, SPATA33 isoform 2 (UniProt Q96N06) 0.033, SSX2IP (UniProt Q9Y2D8) 0.079

compound: C1CCN(C1)C(=O)NC2=CC=CC(=C2)NC3=NC=C(C(=N3)NCCC4=CN=CN4)Br; assay: as above
Summary of the method: as §1

log2 fold change, inactive:
STARD8 isoform 2 (UniProt Q92502) -0.022, SSBP4 (UniProt Q9BWG4) -0.017, STEAP3 isoform 2 (UniProt Q658P3) -0.067, SPRED1 (UniProt Q7Z699) -0.173, SPC24 (UniProt K7ESQ2) 0.058, SQOR (UniProt Q9Y6N5) -0.065, SPTAN1 isoform 3 (UniProt Q13813) 0.059, SPRR2B (UniProt P35325) -0.244, SREK1IP1 (UniProt Q8N9Q2) 0.021, SRC isoform 2 (UniProt P12931) -0.018, SPRTN (UniProt Q9H040) 0.155, SPTBN1 isoform 3 (UniProt Q01082) 0.138, STAG2 (UniProt Q8N3U4) 0.023, SPATA33 isoform 2 (UniProt Q96N06) -0.031, STARD4 (UniProt Q96DR4) 0.044, STAG1 (UniProt Q8WVM7) -0.173, SRCIN1 (UniProt Q9C0H9) 0.017, SSX2IP (UniProt Q9Y2D8) -0.056
